Laboratory results as given in US10894798B2, “Substituted dihydropyrrolopyrazole derivative” (UBE INDUSTRIES, LTD., priority 2015, dated 2021).
Some results were stated once for a whole list of compounds, not compound by compound.

tested on: LPS inhalation-induced pulmonary neutrophil infiltration; assay: Rat LPS inhalation-induced pulmonary neutrophil infiltration inhibition test (single administration); type: in vivo; conditions: dose of 100 mg/kg, single oral administration, male SD rats, BALF 4 hours after LPS

Row | Structure (SMILES) | rate of inhibition of neutrophil infiltration
1 | Cc1cccc(Cl)c1NC(=O)N1Cc2c(NC(=O)C3([Si](C)(C)C)CCC3)n[nH]c2C1(C)C [IV-215, N-(2-Chloro-6-methylphenyl)-6,6-dimethyl-3-[1-(trimethylsilyl)cyclobutanecarboxamido]-4,6-dihydropyrrolo[3,4-c]pyrazole-5 (1H)-carboxamide] | ≥ 50%
2 | Cc1cccc(Br)c1NC(=O)N1Cc2c(NC(=O)C3([Si](C)(C)C)CCC3)n[nH]c2C1(C)C [IV-299, N-(2-Bromo-6-methylphenyl)-6,6-dimethyl-3-[1-(trimethylsilyl)cyclobutanecarboxamido]-4,6-dihydropyrrolo[3,4-c]pyrazole-5 (1H)-carboxamide] | ≥ 50%
3 | Cc1ccc(C)c(NC(=O)N2Cc3c(NC(=O)C4([Si](C)(C)C)CCC4)n[nH]c3C2(C)C)c1 [IV-379, N-(2,5-Dimethylphenyl)-6,6-dimethyl-3-[1-(trimethylsilyl)cyclobutanecarboxamido]-4,6-dihydropyrrolo[3,4-c]pyrazole-5(1H)-carboxamide] | ≥ 50%
